Measurements taken from PMC6362308.

Target: T1, Endogenous human RECQL4 (RecQ-like helicase 4) in HeLa nuclear extract (human (endogenous in HeLa)) (UniProt O94761)
T1 sequence: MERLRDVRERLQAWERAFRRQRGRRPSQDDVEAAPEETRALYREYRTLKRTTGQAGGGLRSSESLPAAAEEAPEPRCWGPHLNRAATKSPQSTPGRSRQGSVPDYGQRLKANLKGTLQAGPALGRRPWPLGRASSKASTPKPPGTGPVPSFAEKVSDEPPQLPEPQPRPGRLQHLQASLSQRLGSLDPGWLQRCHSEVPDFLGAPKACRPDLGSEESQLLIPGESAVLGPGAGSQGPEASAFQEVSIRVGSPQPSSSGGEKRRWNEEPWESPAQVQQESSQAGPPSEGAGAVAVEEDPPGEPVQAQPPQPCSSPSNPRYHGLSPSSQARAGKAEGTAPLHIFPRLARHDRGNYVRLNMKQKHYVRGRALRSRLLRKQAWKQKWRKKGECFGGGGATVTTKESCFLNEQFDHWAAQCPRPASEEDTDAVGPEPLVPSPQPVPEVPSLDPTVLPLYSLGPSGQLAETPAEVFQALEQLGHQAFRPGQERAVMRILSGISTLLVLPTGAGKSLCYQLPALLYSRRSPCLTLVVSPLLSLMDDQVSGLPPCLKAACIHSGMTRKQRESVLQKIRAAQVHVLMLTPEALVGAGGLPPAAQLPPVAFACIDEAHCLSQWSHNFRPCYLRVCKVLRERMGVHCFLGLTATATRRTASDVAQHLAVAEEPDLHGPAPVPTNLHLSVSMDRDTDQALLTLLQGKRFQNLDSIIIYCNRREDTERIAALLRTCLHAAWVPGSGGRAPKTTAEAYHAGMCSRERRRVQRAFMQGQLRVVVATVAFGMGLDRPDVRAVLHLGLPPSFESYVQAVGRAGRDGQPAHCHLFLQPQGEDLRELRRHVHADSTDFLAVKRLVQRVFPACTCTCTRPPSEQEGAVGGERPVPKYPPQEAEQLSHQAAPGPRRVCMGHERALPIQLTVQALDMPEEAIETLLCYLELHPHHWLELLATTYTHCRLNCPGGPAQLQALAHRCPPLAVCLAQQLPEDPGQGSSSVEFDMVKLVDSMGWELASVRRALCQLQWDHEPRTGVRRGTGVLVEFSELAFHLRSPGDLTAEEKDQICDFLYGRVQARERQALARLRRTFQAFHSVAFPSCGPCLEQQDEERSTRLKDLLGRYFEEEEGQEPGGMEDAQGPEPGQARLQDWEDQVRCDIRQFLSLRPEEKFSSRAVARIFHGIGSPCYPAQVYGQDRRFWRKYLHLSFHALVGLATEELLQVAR
Experiment: co-sedimentation; recombinant importin α/β complex added to HeLa nuclear extract; read out as loss of RECQL4 from the microtubule pellet (Fig 1A); only the binder purified

binding: binds
Substance: recombinant importin α/β complex

These are yes or no findings as the source states them, for the method shown. Binding seen in cells or lysates may run through a third protein. Binding calls can cover weak binding; strength is not graded here.
